Earlier results in patent US11065330B2, “Induction of antigen-specific tolerance by peripheral phagocytosis” (PLS-Design GmbH, priority 2014, dated 2021).
For some assays here: At least one compound was matched to its structure with a doubt left. Some entries share one result that the patent states for a list of compounds.

Legend:
asthma exacerbation = settings: six months, glucocorticoids only
[1] = in vivo

SMILES: CCCC1O[C@@H]2C[C@H]3[C@@H]4CCC5=CC(=O)C=C[C@]5(C)[C@H]4[C@@H](O)C[C@]3(C)[C@]2(C(=O)CO)O1 (some centres unmarked) [budesonide]
- children experiencing asthma exacerbation (asthma exacerbation): 46%

SMILES: CC(=O)Oc1ccccc1C(=O)O [ASA, acetylsalicylic acid]
- therapeutic range as serum salicylate concentration [1]: 150 to 300 mg/L
